Measured values taken from the supplement of paper PMC10849652.
This is one part of the list.

Protein sequences, listed by entry. Tags and fused reporters are not part of them. Lines headed by an entry give the natural chain unless they say otherwise; changes in a name come on top.
UniProt Q9H944: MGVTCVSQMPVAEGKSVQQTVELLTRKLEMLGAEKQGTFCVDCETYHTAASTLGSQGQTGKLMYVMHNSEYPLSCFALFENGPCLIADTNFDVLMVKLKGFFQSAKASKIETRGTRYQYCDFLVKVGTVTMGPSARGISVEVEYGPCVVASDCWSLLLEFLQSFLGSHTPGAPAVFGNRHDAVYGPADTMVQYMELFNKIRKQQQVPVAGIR
UniProt P33991: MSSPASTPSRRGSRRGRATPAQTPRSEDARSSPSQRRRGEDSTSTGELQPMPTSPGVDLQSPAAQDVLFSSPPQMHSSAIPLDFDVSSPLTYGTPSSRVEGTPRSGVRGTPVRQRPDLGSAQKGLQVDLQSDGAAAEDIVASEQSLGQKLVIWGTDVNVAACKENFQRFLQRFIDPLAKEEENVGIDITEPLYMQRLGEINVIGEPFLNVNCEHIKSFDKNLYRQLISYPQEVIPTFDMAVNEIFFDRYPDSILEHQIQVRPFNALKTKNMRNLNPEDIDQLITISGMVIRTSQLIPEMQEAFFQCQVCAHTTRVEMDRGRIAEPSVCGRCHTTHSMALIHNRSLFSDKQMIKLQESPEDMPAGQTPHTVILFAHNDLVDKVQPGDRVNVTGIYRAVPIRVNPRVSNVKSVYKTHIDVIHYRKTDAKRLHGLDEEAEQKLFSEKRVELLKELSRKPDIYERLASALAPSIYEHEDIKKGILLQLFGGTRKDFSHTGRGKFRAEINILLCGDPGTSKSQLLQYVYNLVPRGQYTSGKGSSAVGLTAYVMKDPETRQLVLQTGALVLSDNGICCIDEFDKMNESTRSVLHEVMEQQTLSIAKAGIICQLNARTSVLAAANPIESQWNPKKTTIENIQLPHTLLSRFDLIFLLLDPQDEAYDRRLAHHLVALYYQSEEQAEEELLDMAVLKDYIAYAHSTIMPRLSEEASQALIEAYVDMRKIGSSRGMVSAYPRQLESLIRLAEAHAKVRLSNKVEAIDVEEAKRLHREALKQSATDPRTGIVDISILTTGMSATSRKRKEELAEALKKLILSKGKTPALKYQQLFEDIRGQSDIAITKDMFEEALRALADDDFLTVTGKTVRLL
UniProt P43121, whole entry, looked up: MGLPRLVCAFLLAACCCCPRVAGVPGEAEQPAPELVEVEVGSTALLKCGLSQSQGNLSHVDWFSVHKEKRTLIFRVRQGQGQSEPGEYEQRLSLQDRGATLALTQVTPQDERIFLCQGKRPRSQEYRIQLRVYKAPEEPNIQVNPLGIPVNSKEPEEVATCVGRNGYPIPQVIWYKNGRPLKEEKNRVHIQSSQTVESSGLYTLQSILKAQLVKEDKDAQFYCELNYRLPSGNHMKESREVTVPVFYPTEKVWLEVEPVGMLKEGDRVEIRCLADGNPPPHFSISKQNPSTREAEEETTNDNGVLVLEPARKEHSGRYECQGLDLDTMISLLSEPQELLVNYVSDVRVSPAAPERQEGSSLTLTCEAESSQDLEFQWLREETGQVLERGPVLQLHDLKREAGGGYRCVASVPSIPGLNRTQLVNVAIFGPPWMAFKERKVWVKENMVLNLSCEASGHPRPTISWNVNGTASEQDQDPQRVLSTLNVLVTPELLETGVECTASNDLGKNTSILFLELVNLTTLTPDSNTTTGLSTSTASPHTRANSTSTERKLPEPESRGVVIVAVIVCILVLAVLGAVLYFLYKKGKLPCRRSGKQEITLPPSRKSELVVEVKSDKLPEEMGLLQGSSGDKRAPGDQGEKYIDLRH
UniProt P40926: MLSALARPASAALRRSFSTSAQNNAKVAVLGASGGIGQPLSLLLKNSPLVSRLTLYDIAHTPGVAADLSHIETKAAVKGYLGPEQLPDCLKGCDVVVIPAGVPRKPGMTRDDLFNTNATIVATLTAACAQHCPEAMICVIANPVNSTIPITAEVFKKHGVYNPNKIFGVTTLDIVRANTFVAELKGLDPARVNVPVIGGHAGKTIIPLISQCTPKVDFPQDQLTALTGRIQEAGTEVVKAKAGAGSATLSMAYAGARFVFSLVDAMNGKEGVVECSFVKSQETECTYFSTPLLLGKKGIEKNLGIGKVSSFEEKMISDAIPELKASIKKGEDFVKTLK
UniProt Q9BQP7: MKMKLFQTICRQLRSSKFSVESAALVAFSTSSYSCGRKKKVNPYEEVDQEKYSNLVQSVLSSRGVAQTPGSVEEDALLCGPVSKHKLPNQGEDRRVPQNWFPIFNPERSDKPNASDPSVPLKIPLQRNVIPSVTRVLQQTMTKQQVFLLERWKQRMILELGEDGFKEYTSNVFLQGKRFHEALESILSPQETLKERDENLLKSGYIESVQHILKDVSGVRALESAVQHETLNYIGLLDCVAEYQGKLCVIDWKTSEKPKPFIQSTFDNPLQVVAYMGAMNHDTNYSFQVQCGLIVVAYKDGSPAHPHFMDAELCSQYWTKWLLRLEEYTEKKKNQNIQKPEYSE
UniProt P26572: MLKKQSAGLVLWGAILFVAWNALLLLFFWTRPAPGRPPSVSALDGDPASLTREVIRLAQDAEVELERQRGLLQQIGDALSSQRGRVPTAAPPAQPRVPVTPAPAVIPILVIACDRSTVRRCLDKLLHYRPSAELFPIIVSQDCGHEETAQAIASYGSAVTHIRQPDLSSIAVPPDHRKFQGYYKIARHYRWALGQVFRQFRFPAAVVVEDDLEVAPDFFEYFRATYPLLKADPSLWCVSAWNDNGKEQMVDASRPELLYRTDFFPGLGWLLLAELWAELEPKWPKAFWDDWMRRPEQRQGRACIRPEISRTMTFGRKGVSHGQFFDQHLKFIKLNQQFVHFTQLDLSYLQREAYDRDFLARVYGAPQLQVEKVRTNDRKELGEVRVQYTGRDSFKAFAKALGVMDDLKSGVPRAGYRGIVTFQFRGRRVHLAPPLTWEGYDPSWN
UniProt Q09328: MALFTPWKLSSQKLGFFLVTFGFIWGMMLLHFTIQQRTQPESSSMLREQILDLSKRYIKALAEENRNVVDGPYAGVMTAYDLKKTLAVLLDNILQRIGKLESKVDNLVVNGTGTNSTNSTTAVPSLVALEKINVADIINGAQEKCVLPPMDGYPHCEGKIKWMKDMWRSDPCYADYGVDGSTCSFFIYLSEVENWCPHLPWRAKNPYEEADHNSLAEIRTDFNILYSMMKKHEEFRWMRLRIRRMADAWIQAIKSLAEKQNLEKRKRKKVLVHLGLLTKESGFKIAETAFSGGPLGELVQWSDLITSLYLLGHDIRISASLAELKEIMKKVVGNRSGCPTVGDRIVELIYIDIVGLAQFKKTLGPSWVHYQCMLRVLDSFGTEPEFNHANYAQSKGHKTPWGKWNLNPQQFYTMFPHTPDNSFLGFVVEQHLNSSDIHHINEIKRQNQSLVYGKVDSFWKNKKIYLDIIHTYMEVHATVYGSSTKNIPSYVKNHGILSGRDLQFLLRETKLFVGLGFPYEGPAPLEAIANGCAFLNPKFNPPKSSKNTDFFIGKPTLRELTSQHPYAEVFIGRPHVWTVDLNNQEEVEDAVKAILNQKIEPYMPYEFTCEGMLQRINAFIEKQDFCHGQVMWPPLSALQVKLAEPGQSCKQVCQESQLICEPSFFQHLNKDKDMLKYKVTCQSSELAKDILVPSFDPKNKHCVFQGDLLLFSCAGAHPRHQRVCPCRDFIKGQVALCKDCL
UniProt Q99735: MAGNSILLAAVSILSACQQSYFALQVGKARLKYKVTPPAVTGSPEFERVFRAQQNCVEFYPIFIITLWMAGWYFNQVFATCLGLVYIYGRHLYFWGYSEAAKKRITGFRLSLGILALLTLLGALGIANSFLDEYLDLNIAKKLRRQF
UniProt Q86W50: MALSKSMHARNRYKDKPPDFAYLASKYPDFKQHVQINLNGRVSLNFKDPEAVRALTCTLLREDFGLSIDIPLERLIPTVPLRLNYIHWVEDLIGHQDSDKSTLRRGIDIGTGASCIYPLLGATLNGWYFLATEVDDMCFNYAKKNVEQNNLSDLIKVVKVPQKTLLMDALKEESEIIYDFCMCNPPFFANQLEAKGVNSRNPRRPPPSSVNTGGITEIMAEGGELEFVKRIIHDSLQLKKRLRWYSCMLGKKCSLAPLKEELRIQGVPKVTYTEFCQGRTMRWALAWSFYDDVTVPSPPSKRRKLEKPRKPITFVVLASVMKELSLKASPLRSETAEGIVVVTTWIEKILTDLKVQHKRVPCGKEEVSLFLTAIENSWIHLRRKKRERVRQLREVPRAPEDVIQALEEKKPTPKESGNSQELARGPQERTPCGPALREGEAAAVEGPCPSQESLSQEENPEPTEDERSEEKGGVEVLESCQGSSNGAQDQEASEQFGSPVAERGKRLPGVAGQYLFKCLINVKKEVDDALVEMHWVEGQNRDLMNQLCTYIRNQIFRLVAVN
UniProt P40925: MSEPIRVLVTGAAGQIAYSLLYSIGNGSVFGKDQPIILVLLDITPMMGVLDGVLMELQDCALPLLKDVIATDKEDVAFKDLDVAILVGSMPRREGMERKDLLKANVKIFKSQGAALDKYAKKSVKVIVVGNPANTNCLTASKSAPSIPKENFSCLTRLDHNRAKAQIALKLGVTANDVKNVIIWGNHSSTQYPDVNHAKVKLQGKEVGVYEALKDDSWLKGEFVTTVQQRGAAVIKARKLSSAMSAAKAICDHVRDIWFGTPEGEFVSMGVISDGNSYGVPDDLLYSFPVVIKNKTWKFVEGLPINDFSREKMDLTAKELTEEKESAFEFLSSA
UniProt Q86V88: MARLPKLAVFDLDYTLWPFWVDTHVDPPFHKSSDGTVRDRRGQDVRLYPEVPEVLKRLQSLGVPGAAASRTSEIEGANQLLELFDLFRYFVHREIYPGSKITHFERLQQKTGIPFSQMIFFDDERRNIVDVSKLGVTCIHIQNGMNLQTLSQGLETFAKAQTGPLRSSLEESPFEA
UniProt Q16626: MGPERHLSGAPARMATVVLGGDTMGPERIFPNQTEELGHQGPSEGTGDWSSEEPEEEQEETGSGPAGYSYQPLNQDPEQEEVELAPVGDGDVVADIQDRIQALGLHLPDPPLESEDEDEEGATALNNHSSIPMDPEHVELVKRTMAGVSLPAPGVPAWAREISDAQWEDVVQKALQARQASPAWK
UniProt Q68D91: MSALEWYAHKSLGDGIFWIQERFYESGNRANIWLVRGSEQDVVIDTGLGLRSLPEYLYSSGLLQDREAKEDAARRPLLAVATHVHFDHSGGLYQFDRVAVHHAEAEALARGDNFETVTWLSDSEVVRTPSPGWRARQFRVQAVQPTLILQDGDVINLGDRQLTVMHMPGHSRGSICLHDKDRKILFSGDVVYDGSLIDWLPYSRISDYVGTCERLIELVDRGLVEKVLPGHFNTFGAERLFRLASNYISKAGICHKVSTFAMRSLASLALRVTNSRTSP
UniProt Q96N66: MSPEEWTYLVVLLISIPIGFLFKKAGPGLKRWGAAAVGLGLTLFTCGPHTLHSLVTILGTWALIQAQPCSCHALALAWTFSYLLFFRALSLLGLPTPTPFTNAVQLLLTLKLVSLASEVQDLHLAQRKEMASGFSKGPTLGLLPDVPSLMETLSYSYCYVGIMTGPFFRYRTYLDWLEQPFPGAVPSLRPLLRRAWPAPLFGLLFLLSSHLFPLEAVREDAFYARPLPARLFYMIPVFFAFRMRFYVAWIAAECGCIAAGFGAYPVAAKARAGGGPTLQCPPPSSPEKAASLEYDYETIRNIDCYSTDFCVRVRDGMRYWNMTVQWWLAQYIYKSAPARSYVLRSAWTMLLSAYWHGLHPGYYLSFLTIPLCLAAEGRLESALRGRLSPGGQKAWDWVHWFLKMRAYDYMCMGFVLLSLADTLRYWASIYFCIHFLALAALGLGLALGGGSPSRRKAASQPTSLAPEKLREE
UniProt Q9NPJ6: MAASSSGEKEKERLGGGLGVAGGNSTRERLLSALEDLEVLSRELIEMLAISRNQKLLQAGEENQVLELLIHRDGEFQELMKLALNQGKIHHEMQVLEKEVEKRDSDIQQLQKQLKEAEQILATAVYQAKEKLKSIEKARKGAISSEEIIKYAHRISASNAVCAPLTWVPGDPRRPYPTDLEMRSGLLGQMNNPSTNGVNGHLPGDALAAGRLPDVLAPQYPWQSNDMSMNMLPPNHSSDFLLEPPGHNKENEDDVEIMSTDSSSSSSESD
UniProt Q5TF39: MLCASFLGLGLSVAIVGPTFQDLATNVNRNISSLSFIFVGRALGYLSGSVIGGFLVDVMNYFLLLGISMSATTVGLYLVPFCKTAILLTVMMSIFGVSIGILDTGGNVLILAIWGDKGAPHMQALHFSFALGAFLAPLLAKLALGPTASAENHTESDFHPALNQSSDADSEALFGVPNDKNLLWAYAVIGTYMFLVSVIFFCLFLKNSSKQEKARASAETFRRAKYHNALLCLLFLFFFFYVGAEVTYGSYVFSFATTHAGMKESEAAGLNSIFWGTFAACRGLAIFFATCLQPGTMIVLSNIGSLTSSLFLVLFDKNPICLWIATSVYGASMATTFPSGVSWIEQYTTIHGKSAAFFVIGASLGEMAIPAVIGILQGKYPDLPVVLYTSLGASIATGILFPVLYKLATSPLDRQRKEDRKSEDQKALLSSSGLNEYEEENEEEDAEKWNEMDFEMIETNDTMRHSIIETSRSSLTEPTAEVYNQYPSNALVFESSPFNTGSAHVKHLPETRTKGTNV

Key:
Assay in all cases: log2 fold change, soluble protein after heating vs DMSO (PISA); higher = thermal stabilisation; K562 cells, 10 uM, 30 min; active = over 0.2 and 3.5 SD of the protein, either way, in both replicates (recomputed)
[1] = compound: CS(=O)(=O)c1ccc(-c2cnc(N)c(C(=O)Nc3ccccc3)n2)cc1
Summary of the method: (§1)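 For each measurement, 10 μM compound was applied for 30 min to K562 cells at 2×10^6 cells/mL. Aliquots were heated for 3 min across 48°C-58°C, pooled, and extracted in PBS with 0.5% NP-40 at 4°C; the supernatant after 21,000xg for 90 min was soluble protein. This was quantified by TMTpro 16plex LC-MS/MS with channel sums equalised, and thermal stability was reported relative to control samples from duplicates, on a log2 fold-change scale.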

crizotinib = compound: C[C@@H](Oc1cc(-c2cnn(C3CCNCC3)c2)cnc1N)c1c(Cl)ccc(F)c1Cl [crizotinib]
Summary of the method: as §1

[2] = compound: C[C@@H]1COCCN1C2=NC(=NC(=C2)C3(CC3)S(=O)(=O)C)C4=C5C=CNC5=CC=C4
Summary of the method: as §1

[3] = compound: C[C@H](C1=CC=C(C=C1)C(=O)NC2=C3C=CNC3=NC=C2)N
Summary of the method: as §1

duvelisib = compound: C[C@H](Nc1ncnc2nc[nH]c12)c1cc2cccc(Cl)c2c(=O)n1-c1ccccc1 [duvelisib]
Summary of the method: as §1

gandotinib = compound: Cc1cc(Nc2cc(CN3CCOCC3)c3nc(C)c(Cc4ccc(Cl)cc4F)n3n2)n[nH]1 [gandotinib]
Summary of the method: as §1

tozasertib = compound: Cc1cc(Nc2cc(N3CCN(C)CC3)nc(Sc3ccc(NC(=O)C4CC4)cc3)n2)n[nH]1 [tozasertib]
Summary of the method: as §1

[4] = compound: Cc1cc(SCc2sc(-c3ccc(C(F)(F)F)cc3)nc2C)ccc1OCC(=O)O
Summary of the method: as §1

doramapimod = compound: Cc1ccc(-n2nc(C(C)(C)C)cc2NC(=O)Nc2ccc(OCCN3CCOCC3)c3ccccc23)cc1 [doramapimod]
Summary of the method: as §1

ispinesib = compound: Cc1ccc(C(=O)N(CCCN)[C@@H](c2nc3cc(Cl)ccc3c(=O)n2Cc2ccccc2)C(C)C)cc1 [ispinesib]
Summary of the method: as §1

bafetinib = compound: Cc1ccc(NC(=O)c2ccc(CN3CC[C@H](N(C)C)C3)c(C(F)(F)F)c2)cc1Nc1nccc(-c2cncnc2)n1 [bafetinib]
Summary of the method: as §1

[5] = compound: Cc1cccc(CC(=O)N2CCc3c2ccc(-c2cn(C)c4ncnc(N)c24)c3F)n1
Summary of the method: as §1

nilotinib = compound: Cc1cn(-c2cc(NC(=O)c3ccc(C)c(Nc4nccc(-c5cccnc5)n4)c3)cc(C(F)(F)F)c2)cn1 [nilotinib]
Summary of the method: as §1

[6] = compound: Cc1nc(Nc2n[nH]c3c2CN(C(=O)N[C@H](CN(C)C)c2ccccc2)C3(C)C)c2sccc2n1
Summary of the method: as §1

dasatinib = compound: Cc1nc(Nc2ncc(C(=O)Nc3c(C)cccc3Cl)s2)cc(N2CCN(CCO)CC2)n1 [dasatinib]
Summary of the method: as §1

[7] = compound: Cc1ncc(-c2ccnc(Nc3ccc(S(C)(=O)=O)cc3)n2)n1C(C)C
Summary of the method: as §1

[8] = compound: Cn1cc(-c2ccc3c(c2)CCN3C(=O)Cc2cccc(C(F)(F)F)c2)c2c(N)ncnc21
Summary of the method: as §1

[9] = compound: Cn1cc(-c2ccc3nnc(C(F)(F)c4ccc5ncccc5c4)n3n2)cn1
Summary of the method: as §1

tipifarnib = compound: Cn1cncc1[C@@](N)(c1ccc(Cl)cc1)c1ccc2c(c1)c(-c1cccc(Cl)c1)cc(=O)n2C [tipifarnib]
Summary of the method: as §1

mubritinib = compound: FC(F)(F)c1ccc(/C=C/c2nc(COc3ccc(CCCCn4ccnn4)cc3)co2)cc1 [mubritinib]
Summary of the method: as §1

Measured: log2 fold change

MED20 (UniProt Q9H944)
inactive: [1] -0.013 | crizotinib -0.024 | [2] 0.052 | [3] 0.01 | duvelisib 0.004 | gandotinib -0.073 | tozasertib -0.085 | [4] 0.004 | doramapimod 0.004 | ispinesib 0.02 | bafetinib -0.042 | [5] 0.064 | nilotinib -0.025 | [6] -0.003 | dasatinib 0.074 | [7] -0.055 | [8] 0.038 | [9] -0.008 | tipifarnib -0.051 | mubritinib 0.023

MCM4 (UniProt P33991)
inactive: [1] -0.003 | crizotinib -0.006 | [2] 0.069 | [3] -0.115 | duvelisib 0.044 | gandotinib -0.104 | tozasertib 0.031 | [4] 0.03 | doramapimod 0.002 | ispinesib 0.003 | bafetinib -0.016 | [5] 0.016 | nilotinib -0.042 | [6] -0.002 | dasatinib -0.056 | [7] -0.054 | [8] 0.036 | [9] 0.053 | tipifarnib -0.036 | mubritinib 0.063

MCAM (UniProt P43121)
inactive: [1] 0.038 | crizotinib 0.065 | [2] 0.06 | [3] -0.072 | duvelisib 0.026 | gandotinib -0.03 | tozasertib -0.072 | [4] -0.063 | doramapimod 0.002 | ispinesib 0.058 | bafetinib -0.001 | [5] -0.036 | nilotinib 0.047 | [6] 0.005 | dasatinib 0.044 | [7] -0.02 | [8] 0.028 | [9] 0.014 | tipifarnib 0.026 | mubritinib 0.032

MDH2 (UniProt P40926)
inactive: [1] -0.011 | crizotinib 0.076 | [2] -0.007 | [3] -0.049 | duvelisib -0.001 | gandotinib -0.02 | tozasertib -0.009 | [4] -0.03 | doramapimod -0.029 | ispinesib 0.039 | bafetinib -0.005 | [5] -0.053 | nilotinib -0.018 | [6] 0.017 | dasatinib 0.03 | [7] -0.025 | [8] 0.01 | [9] 0.02 | tipifarnib 0.015 | mubritinib -0.02

MGME1 (UniProt Q9BQP7)
inactive: [1] 0.032 | crizotinib -0.022 | [2] 0.031 | [3] -0.034 | duvelisib 0.024 | gandotinib 0 | tozasertib -0.016 | [4] 0.055 | doramapimod -0.007 | ispinesib -0.042 | bafetinib -0.048 | [5] 0.024 | nilotinib 0.023 | [6] -0.018 | dasatinib -0.01 | [7] -0.001 | [8] 0.042 | [9] -0.007 | tipifarnib -0.031 | mubritinib 0.022

MGAT1 (UniProt P26572)
inactive: [1] 0.038 | crizotinib 0.067 | [2] -0.035 | [3] 0.036 | duvelisib 0.011 | gandotinib 0.018 | tozasertib 0.009 | [4] 0.037 | doramapimod 0.052 | ispinesib 0.057 | bafetinib 0.039 | [5] 0.001 | nilotinib -0.002 | [6] 0.021 | dasatinib -0.008 | [7] 0.06 | [8] -0.063 | [9] -0.06 | tipifarnib 0.042 | mubritinib 0.001

MGAT5 (UniProt Q09328)
inactive: [1] 0.104 | crizotinib 0.043 | [2] -0.071 | [3] 0.05 | duvelisib -0.023 | gandotinib -0.01 | tozasertib -0.015 | [4] -0.01 | doramapimod -0.007 | ispinesib 0.055 | bafetinib -0.012 | [5] -0.036 | nilotinib 0.091 | [6] -0.067 | dasatinib 0.043 | [7] 0.02 | [8] 0.008 | [9] 0.185 | tipifarnib -0.007 | mubritinib 0.025

MGST2 (UniProt Q99735)
inactive: [1] -0.048 | crizotinib -0.042 | [2] 0.087 | [3] -0.132 | duvelisib 0.136 | gandotinib -0.088 | tozasertib -0.026 | [4] 0.152 | doramapimod 0.022 | ispinesib -0.002 | bafetinib -0.031 | [5] -0.065 | nilotinib 0.018 | [6] -0.006 | dasatinib -0.137 | [7] 0.001 | [8] 0.188 | [9] 0.084 | tipifarnib -0.02 | mubritinib 0.021

METTL16 (UniProt Q86W50)
inactive: [1] -0.11 | crizotinib 0.082 | [2] 0.012 | [3] -0.078 | duvelisib 0.018 | gandotinib -0.069 | tozasertib 0.03 | [4] 0.026 | doramapimod -0.004 | ispinesib 0.031 | bafetinib -0.043 | [5] -0.016 | nilotinib -0.07 | [6] -0.007 | dasatinib -0.043 | [7] -0.074 | [8] -0.021 | [9] -0.036 | tipifarnib 0.007 | mubritinib -0.012

MDH1 isoform 3 (UniProt P40925)
inactive: [1] -0.02 | crizotinib 0.037 | [2] 0.033 | [3] -0.066 | duvelisib 0.032 | gandotinib -0.011 | tozasertib -0.032 | [4] -0.02 | doramapimod -0.018 | ispinesib 0.042 | bafetinib 0.007 | [5] -0.025 | nilotinib -0.019 | [6] 0.013 | dasatinib 0.01 | [7] 0.002 | [8] 0.009 | [9] 0.009 | tipifarnib -0.057 | mubritinib 0.033

MDP1 (UniProt Q86V88)
inactive: [1] 0.022 | crizotinib 0.14 | [2] 0.094 | [3] 0.135 | duvelisib 0.048 | gandotinib 0.004 | tozasertib 0.005 | [4] -0.072 | doramapimod 0.053 | ispinesib 0.019 | bafetinib 0.076 | [5] -0.031 | nilotinib 0.013 | [6] -0.022 | dasatinib 0.091 | [7] 0.028 | [8] -0.017 | [9] 0.128 | tipifarnib -0.124 | mubritinib 0.054

MEA1 (UniProt Q16626)
inactive: [1] -0.02 | crizotinib 0.061 | [2] 0.136 | [3] -0.118 | duvelisib 0.056 | gandotinib -0.066 | tozasertib -0.032 | [4] -0.083 | doramapimod 0.053 | ispinesib 0.052 | bafetinib -0.019 | [5] -0.005 | nilotinib 0.016 | [6] -0.02 | dasatinib 0.08 | [7] -0.071 | [8] 0.02 | [9] 0.03 | tipifarnib 0.055 | mubritinib 0.057

MBLAC2 (UniProt Q68D91)
inactive: [1] -0.012 | crizotinib 0.06 | [2] 0.011 | [3] -0.085 | duvelisib 0.025 | gandotinib 0.015 | tozasertib -0.076 | [4] -0.048 | doramapimod 0.014 | ispinesib 0.088 | bafetinib -0.037 | [5] -0.033 | nilotinib -0.017 | [6] 0.053 | dasatinib 0.016 | [7] -0.032 | [8] 0.027 | [9] -0.011 | tipifarnib 0.034 | mubritinib 0.015

MBOAT7 (UniProt Q96N66)
inactive: [1] -0.033 | crizotinib 0.052 | [2] 0.011 | [3] -0.078 | duvelisib 0.018 | gandotinib -0.049 | tozasertib 0.01 | [4] -0.019 | doramapimod -0.013 | ispinesib -0.003 | bafetinib -0.01 | [5] 0.036 | nilotinib -0.05 | [6] 0.019 | dasatinib 0.009 | [7] -0.018 | [8] 0.016 | [9] 0.058 | tipifarnib -0.055 | mubritinib 0.014

Quoted from the results shown (2 entries):
MEA1 (UniProt Q16626)
inactive: [1] -0.02 | crizotinib 0.061 | [2] 0.136 | [3] -0.118 | duvelisib 0.056 | gandotinib -0.066 | tozasertib -0.032 | [4] -0.083 | doramapimod 0.053 | ispinesib 0.052 | bafetinib -0.019 | [5] -0.005 | nilotinib 0.016 | [6] -0.02 | dasatinib 0.08 | [7] -0.071 | [8] 0.02 | [9] 0.03 | tipifarnib 0.055 | mubritinib 0.057

MBLAC2 (UniProt Q68D91)
inactive: [1] -0.012 | crizotinib 0.06 | [2] 0.011 | [3] -0.085 | duvelisib 0.025 | gandotinib 0.015 | tozasertib -0.076 | [4] -0.048 | doramapimod 0.014 | ispinesib 0.088 | bafetinib -0.037 | [5] -0.033 | nilotinib -0.017 | [6] 0.053 | dasatinib 0.016 | [7] -0.032 | [8] 0.027 | [9] -0.011 | tipifarnib 0.034 | mubritinib 0.015

Continued.

MED4 (UniProt Q9NPJ6)
inactive: [1] -0.051 | crizotinib 0.031 | [2] -0.024 | [3] -0.041 | duvelisib 0.026 | gandotinib -0.081 | tozasertib 0.007 | [4] 0.025 | doramapimod 0.004 | ispinesib 0.004 | bafetinib 0.023 | [5] -0.02 | nilotinib 0.017 | [6] 0.032 | dasatinib 0.024 | [7] -0.03 | [8] 0.053 | [9] -0.006 | tipifarnib 0.097 | mubritinib 0.053

MFSD4B (UniProt Q5TF39)
inactive: [1] -0.162 | crizotinib -0.048 | [2] -0.137 | [3] 0.203 | duvelisib -0.045 | gandotinib -0.029 | tozasertib 0.069 | [4] 0.03 | doramapimod 0.034 | ispinesib -0.312 | bafetinib -0.121 | [5] 0.004 | nilotinib 0.004 | [6] -0.033 | dasatinib 0.054 | [7] 0.005 | [8] 0.075 | [9] 0.127 | tipifarnib 0.006 | mubritinib -0.03
